Results are given in words; binding and its absence hold for the method and conditions named.

Chains of the proteins cited; added tags and fusions are not shown. Lines headed by an entry give the natural chain unless they say otherwise; changes in a name come on top. Residues count along the entry.
UniProt O60602, residues 691-837: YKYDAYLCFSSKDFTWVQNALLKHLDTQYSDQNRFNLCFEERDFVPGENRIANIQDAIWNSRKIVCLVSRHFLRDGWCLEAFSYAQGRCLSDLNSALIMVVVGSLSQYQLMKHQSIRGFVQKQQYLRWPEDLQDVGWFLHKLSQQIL
UniProt Q96PH1: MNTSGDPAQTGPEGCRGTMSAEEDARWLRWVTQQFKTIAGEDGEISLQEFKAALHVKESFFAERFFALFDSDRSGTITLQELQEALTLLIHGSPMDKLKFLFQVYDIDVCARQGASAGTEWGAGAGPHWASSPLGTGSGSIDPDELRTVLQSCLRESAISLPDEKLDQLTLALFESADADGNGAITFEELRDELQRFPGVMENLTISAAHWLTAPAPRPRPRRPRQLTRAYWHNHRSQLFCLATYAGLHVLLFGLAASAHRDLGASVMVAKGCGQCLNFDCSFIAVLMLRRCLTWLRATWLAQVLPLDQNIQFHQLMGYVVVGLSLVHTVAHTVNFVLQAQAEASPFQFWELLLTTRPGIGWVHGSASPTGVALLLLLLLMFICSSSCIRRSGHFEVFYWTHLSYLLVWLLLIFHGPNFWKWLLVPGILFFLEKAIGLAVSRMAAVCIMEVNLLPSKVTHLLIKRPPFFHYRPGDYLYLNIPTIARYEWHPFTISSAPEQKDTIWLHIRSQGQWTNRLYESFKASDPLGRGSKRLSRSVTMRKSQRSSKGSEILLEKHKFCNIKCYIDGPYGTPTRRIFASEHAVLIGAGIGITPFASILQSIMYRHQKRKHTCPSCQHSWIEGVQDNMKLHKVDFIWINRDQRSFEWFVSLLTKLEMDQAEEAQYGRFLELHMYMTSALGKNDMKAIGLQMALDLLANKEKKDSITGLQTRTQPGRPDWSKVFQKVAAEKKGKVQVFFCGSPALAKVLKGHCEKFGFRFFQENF

For the test, the target named is Toll/Interleukin-1 receptor (TIR, AA 691–837) domain of TLR5 (UniProt O60602). Briefly: two-hybrid; yeast expressing pB42AD-TIR-TLR5 with pLexA-Nox C-terminal regions; after selection for Trp+ and His+, Leu-dependent growth and β-galactosidase activity (X-gal) in SD/galactose/raffinose medium.

In the case of “Nox5 COOH-terminal region (AA 395–720) (from UniProt Q96PH1) (domain or fragment)”, the binding result is on record as “no binding”.
